Data as given in article PMC4935974.
Results are given in words; binding and its absence hold for the method and conditions named. Binding seen in cells or lysates may run through a third protein. Some entries that bind do so weakly or less than the wild type.

By UniProt entry, the sequences of proteins in these tests, tags left out.
UniProt Q92804: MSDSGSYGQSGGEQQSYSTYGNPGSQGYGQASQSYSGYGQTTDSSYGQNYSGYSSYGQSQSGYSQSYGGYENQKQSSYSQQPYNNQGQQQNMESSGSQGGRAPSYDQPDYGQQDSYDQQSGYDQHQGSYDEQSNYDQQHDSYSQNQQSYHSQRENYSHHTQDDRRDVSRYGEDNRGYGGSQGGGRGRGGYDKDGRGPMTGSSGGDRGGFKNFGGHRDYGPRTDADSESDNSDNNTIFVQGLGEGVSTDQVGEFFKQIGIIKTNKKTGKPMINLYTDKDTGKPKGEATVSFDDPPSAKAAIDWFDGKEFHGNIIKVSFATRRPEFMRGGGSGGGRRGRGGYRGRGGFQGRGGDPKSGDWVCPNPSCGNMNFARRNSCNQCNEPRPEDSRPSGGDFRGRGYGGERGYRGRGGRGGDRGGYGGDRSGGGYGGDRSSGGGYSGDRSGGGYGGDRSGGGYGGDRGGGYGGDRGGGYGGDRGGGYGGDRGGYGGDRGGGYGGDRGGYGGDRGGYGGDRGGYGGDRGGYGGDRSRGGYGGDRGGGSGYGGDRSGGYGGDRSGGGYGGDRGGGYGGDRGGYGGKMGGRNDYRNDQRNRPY
UniProt P35637: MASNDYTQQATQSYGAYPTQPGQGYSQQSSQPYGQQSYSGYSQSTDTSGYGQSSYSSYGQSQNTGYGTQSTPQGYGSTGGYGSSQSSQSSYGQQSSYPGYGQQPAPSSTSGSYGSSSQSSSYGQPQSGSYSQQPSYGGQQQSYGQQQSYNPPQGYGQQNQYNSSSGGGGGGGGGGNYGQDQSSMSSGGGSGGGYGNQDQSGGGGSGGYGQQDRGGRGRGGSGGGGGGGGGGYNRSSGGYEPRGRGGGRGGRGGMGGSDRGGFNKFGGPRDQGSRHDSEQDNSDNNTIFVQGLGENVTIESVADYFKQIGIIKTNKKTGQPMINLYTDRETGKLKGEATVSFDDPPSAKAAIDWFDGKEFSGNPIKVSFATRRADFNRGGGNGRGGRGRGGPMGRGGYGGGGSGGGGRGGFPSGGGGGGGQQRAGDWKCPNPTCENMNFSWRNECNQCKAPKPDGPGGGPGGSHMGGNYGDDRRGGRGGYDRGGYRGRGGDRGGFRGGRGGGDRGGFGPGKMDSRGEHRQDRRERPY

Biological target: V5-tagged TAF15 (human) (UniProt Q92804)
Test: co-IP; TAF15-V5 and FUS-Myc expressed separately in HEK293T cells; lysates mixed after lysis; immunoprecipitation by V5 or by Myc, blot for the other tag

binding: binds
Substance: Myc-tagged FUS (from UniProt P35637 1-526)
